Measurements: patent publication US20040110775A1, “Cyclin dependent kinase inhibiting purine derivatives” (priority 2001, published 2004)
At least one structure is not confirmed: it was looked up by name or label, or the drawing left a doubt.

Molecular target: p34 cdc2(CDK1)/cyclinB
Assay: CDK assay: histone H1 phosphorylation with [32P]ATP by cdc2/cyclinB kinase
Format: biochemical, starfish (Marthasterias glacialis)
Details: values given in μM; read-out: IC50 ± SD CDK1
Protocol: Assays are available for testing the inhibitory activity of the compounds of interest against a range of CDK/cyclin complexes, including CDK1/cyclin A, CDK1/cyclin B, CDK1/cyclin F, CDK2/cyclin A, CDK2/cyclin E, CDK4/cyclin D, CDK5/35 and CDK6/cyclin D3. […]
By way of example, however, a typical protocol is summarised below.
Buffer C (containing 6 mM β-glycerophosphate, 30 mM nitrophenyl phosphate, 25 mM MOPS pH 7.0, 5 mM EGTA, 15 mM MgCl2, […] and 0.1 mM sodium orthovanadate) is made up as follows:
Affinity purified p34 cdc2(CDK1)/cyclinB from M-phase starfish (Marthasterias glacialis) in 20% glycerol is stored at −80° C. in chest freezer
Histone H1 (type III-S (Sigma) 4° C.) 5 mg/ml in buffer C.
[^32P]ATP 75 mM: Make up using (multiples of) the following proportions:
DMSO cannot exceed 1% in the assay mixture. Inhibitors are added at 1/10 final assay volume and 10× final strength. DMSO stocks must therefore be diluted to 10× final desired concentration in ≦10% DMSO, ≧90% buffer C.
All reagents (except DMSO stocks) should be kept on ice until assay initiated.
Start reaction in each tube at 30 second intervals b)y adding
5 ml [^32P]ATP vortexing and placing in rack in waterbath at 30° C. […]

O=S(=O)(Nc1cccc(Cl)c1)c1ccc(Nc2nc(OCC3CCCCC3)c3nc[nH]c3n2)cc1 [NU6132, N-(3-Chloro-phenyl)-4-(6-cyclohexylmethoxy-9H-purin-2-ylamino)benzenesulfonamide]
IC50: 5.6 µM
